No constants are given. Whether binding was seen depends on the method and setting. In cells and extracts the contact can be indirect. Binding can be weak; no strength is given. Sequences can lack the tags named with a protein.

The target in the test is His-GST-CsNOSIP (GST tagged rCsNOSIP) (Clonorchis sinensis). Description: pull-down; 50 ug purified GST-rCsNOSIP (or purified GST) immobilised on GST affinity beads, incubated with cells lysate containing Flag-ASPSCR-1 or Flag-Sirt 5, room temperature 2 h, washed with PBS, eluted with 10 mM GSH; blots with anti-GST and anti-Flag; only the target purified.

B1: Flag-ASPSCR-1 (alveolar soft part sarcoma chromosomal region candidate gene 1 protein) (protein, UniProt Q9BZE9 1-553)
chain: MAAPAGGGGSAVSVLAPNGRRHTVKVTPSTVLLQVLEDTCRRQDFNPCEYDLKFQRSVLDLSLQWRFANLPNNAKLEMVPASRSREGPENMVRIALQLDDGSRLQDSFCSGQTLWELLSHFPQIRECLQHPGGATPVCVYTRDEVTGEAALRGTTLQSLGLTGGSATIRFVMKCYDPVGKTPGSLGSSASAGQAAASAPLPLESGELSRGDLSRPEDADTSGPCCEHTQEKQSTRAPAAAPFVPFSGGGQRLGGPPGPTRPLTSSSAKLPKSLSSPGGPSKPKKSKSGQDPQQEQEQERERDPQQEQERERPVDREPVDREPVVCHPDLEERLQAWPAELPDEFFELTVDDVRRRLAQLKSERKRLEEAPLVTKAFREAQIKEKLERYPKVALRVLFPDRYVLQGFFRPSETVGDLRDFVRSHLGNPELSFYLFITPPKTVLDDHTQTLFQANLFPAALVHLGAEEPAGVYLEPGLLEHAISPSAADVLVARYMSRAAGSPSPLPAPDPAPKSEPAAEEGALVPPEPIPGTAQPVKRSLGKVPKWLKLPASKR
Consider B1, for which the binding entry is listed as “binds”.

These data come from article PMC10664913.
